Laboratory results from the supplement of paper PMC7661543.
The effect of the compound repeats well; differences between the knockouts mostly do not.

Assays:
HCC-38 = experiment: relative cell number vs DMSO control (72 h) (% of DMSO); higher = less growth inhibition (more cells)
Experimental: (§1)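 QMAP-Seq: a pool of 5 breast cancer cell lines (ZR-75-1, SKBR3, HCC-38, MDA-MB-231, BT-20), each carrying 12 doxycycline-inducible Cas9 sgRNA perturbations (11 knockouts plus non-targeting sgNT), was treated with compounds for 72 h at four 10-fold doses (10 nM-10 uM or 1 nM-1 uM range). Barcodes were amplified and sequenced, and cell number was interpolated from 293T spike-in standard curves. The result is expressed as % of the median of DMSO wells. Two biological replicates.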

BT-20 = experiment: as above
Experimental: as §1

O=C1NC(=O)/C(=C/c2ccc3nccc(-c4ccncc4)c3c2)S1
relative cell number
Details	BT-20	HCC-38
sgRNA knockout: sgATF3, 10 nM	83.7	95.13
sgRNA knockout: sgATF3, 100 nM	99	88.8
sgRNA knockout: sgATF3, 1000 nM	69.6	79.1
sgRNA knockout: sgATF3, 10000 nM	50.9	43.5
sgRNA knockout: sgATF4, 10 nM	84.5	88
sgRNA knockout: sgATF4, 100 nM	103	86.3
sgRNA knockout: sgATF4, 1000 nM	77.2	76.6
sgRNA knockout: sgATF4, 10000 nM	42.8	42.8
sgRNA knockout: sgATF6, 10 nM	92.7	96.8
sgRNA knockout: sgATF6, 100 nM	95.5	96.58
sgRNA knockout: sgATF6, 1000 nM	68.9	90.8
sgRNA knockout: sgATF6, 10000 nM	43.2	50.9
sgRNA knockout: sgATG7, 10 nM	103	91.7
sgRNA knockout: sgATG7, 100 nM	88.4	85
sgRNA knockout: sgATG7, 1000 nM	76.1	75.7
sgRNA knockout: sgATG7, 10000 nM	40.4	47.69
sgRNA knockout: sgERN1, 10 nM	100	96.4
sgRNA knockout: sgERN1, 100 nM	87.84	91.7
sgRNA knockout: sgERN1, 1000 nM	71.3	81.2
sgRNA knockout: sgERN1, 10000 nM	34.2	46.2
sgRNA knockout: sgHSF1, 10 nM	87.2	94.6
sgRNA knockout: sgHSF1, 100 nM	90.3	85.7
sgRNA knockout: sgHSF1, 1000 nM	63.7	80.6
sgRNA knockout: sgHSF1, 10000 nM	38.9	46.5
sgRNA knockout: sgHSF2, 10 nM	77.3	96.4
sgRNA knockout: sgHSF2, 100 nM	89.55	97.6
sgRNA knockout: sgHSF2, 1000 nM	69.8	78.5
sgRNA knockout: sgHSF2, 10000 nM	43.6	49.7
sgRNA knockout: sgKEAP1, 10 nM	93.4	103
sgRNA knockout: sgKEAP1, 100 nM	76.8	96.1
sgRNA knockout: sgKEAP1, 1000 nM	70.3	79.9
sgRNA knockout: sgKEAP1, 10000 nM	38.6	57.7
sgRNA knockout: sgNFE2L2, 10 nM	92.8	90
sgRNA knockout: sgNFE2L2, 100 nM	94	85.1
sgRNA knockout: sgNFE2L2, 1000 nM	65	78.8
sgRNA knockout: sgNFE2L2, 10000 nM	45.9	40.3
sgRNA knockout: sgSLC35F2, 10 nM	91.89	87.7
sgRNA knockout: sgSLC35F2, 100 nM	80	95.5
sgRNA knockout: sgSLC35F2, 1000 nM	67.7	79.4
sgRNA knockout: sgSLC35F2, 10000 nM	44.5	42.9
sgRNA knockout: sgXBP1, 10 nM	93.6	89.6
sgRNA knockout: sgXBP1, 100 nM	81.8	86.1
sgRNA knockout: sgXBP1, 1000 nM	80.3	80.2
sgRNA knockout: sgXBP1, 10000 nM	47.59	44.6

O=c1cc(-c2cccc3c2Sc2ccccc2S3)oc(N2CCOCC2)c1
relative cell number
Details	BT-20	HCC-38
sgRNA knockout: sgATF3, 10 nM	90.6	95.2
sgRNA knockout: sgATF3, 100 nM	87.43	80.6
sgRNA knockout: sgATF3, 1000 nM	91.9	95
sgRNA knockout: sgATF3, 10000 nM	82.7	88.5
sgRNA knockout: sgATF4, 10 nM	90.57	97
sgRNA knockout: sgATF4, 100 nM	90.2	67.2
sgRNA knockout: sgATF4, 1000 nM	99	84
sgRNA knockout: sgATF4, 10000 nM	85.1	87.65
sgRNA knockout: sgATF6, 10 nM	106	104
sgRNA knockout: sgATF6, 100 nM	106	94.6
sgRNA knockout: sgATF6, 1000 nM	107	94.9
sgRNA knockout: sgATF6, 10000 nM	89.5	79.3
sgRNA knockout: sgATG7, 10 nM	102	95.5
sgRNA knockout: sgATG7, 100 nM	94.7	75.2
sgRNA knockout: sgATG7, 1000 nM	110	85.9
sgRNA knockout: sgATG7, 10000 nM	71.3	78.3
sgRNA knockout: sgERN1, 10 nM	89.2	99.8
sgRNA knockout: sgERN1, 100 nM	98	82.6
sgRNA knockout: sgERN1, 1000 nM	93.87	87.5
sgRNA knockout: sgERN1, 10000 nM	89.9	79.2
sgRNA knockout: sgHSF1, 10 nM	97.6	106
sgRNA knockout: sgHSF1, 100 nM	96.4	86.49
sgRNA knockout: sgHSF1, 1000 nM	104	88.5
sgRNA knockout: sgHSF1, 10000 nM	94.2	77.4
sgRNA knockout: sgHSF2, 10 nM	91	102
sgRNA knockout: sgHSF2, 100 nM	85.05	90.9
sgRNA knockout: sgHSF2, 1000 nM	97.1	91.2
sgRNA knockout: sgHSF2, 10000 nM	82.8	78.1
sgRNA knockout: sgKEAP1, 10 nM	97.2	101
sgRNA knockout: sgKEAP1, 100 nM	88.3	98.3
sgRNA knockout: sgKEAP1, 1000 nM	110	102
sgRNA knockout: sgKEAP1, 10000 nM	99.2	70.8
sgRNA knockout: sgNFE2L2, 10 nM	89.4	91.7
sgRNA knockout: sgNFE2L2, 100 nM	91.5	69
sgRNA knockout: sgNFE2L2, 1000 nM	94.3	84.1
sgRNA knockout: sgNFE2L2, 10000 nM	80.5	85
sgRNA knockout: sgSLC35F2, 10 nM	74.5	93.1
sgRNA knockout: sgSLC35F2, 100 nM	83.11	83
sgRNA knockout: sgSLC35F2, 1000 nM	106	91.9
sgRNA knockout: sgSLC35F2, 10000 nM	75.3	85.2
sgRNA knockout: sgXBP1, 10 nM	92.8	99.158
sgRNA knockout: sgXBP1, 100 nM	92.2	75.9
sgRNA knockout: sgXBP1, 1000 nM	103	85.1
sgRNA knockout: sgXBP1, 10000 nM	91.724	89.1
